PubChem BioAssay AID1159584 | Peter MacCallum Cancer Centre, 2016
Here is one part, drawn at random, of about 18,000 deposited reagents. Not stated in the record: the amount of reagent, the time to read-out.

- Screen: 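Genes that CDH1-null MCF10A cells selectively depend on to survive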 (primary screen)
- Cells: human MCF10A breast epithelial cells, parental and CDH1-null
- Reagents: siRNA against human genes
- Measured: 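Cell viability by CellTiter-Glo ATP luminescence, each line scaled to the mean of mock wells across plates, then CDH1-null over parental ratio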
- Scale: CDH1-null / parental viability ratio: higher = CDH1-null cells survive relatively better than parental; CDH1-null viability vs mock: higher = more viable CDH1-null cells; parental viability vs mock: higher = more viable parental cells

The opening 8 entries, to show the layout:
Target gene | CDH1-null / parental viability ratio | CDH1-null viability vs mock (fraction of mock) | parental viability vs mock (fraction of mock)
CCL18 | 0.74 | 0.53 | 0.72
LRIT2 | 1.06 | 0.88 | 0.83
C9orf85 | 0.83 | 0.62 | 0.75
TMC7 | 1.37 | 0.78 | 0.57
FGD5 | 1.2 | 0.78 | 0.65
TRMO | 0.91 | 0.62 | 0.68
BPIFB4 | 1.17 | 1.17 | 1
GH2 | 1.06 | 1.02 | 0.96

Results, from the first entry:
Target gene | CDH1-null / parental viability ratio | CDH1-null viability vs mock (fraction of mock) | parental viability vs mock (fraction of mock)
CCL18 | 0.74 | 0.53 | 0.72
LRIT2 | 1.06 | 0.88 | 0.83
C9orf85 | 0.83 | 0.62 | 0.75
TMC7 | 1.37 | 0.78 | 0.57
FGD5 | 1.2 | 0.78 | 0.65
TRMO | 0.91 | 0.62 | 0.68
BPIFB4 | 1.17 | 1.17 | 1
GH2 | 1.06 | 1.02 | 0.96
MON1B | 1.05 | 0.86 | 0.82
BEST2 | 0.86 | 0.82 | 0.95
AMN | 1.15 | 0.94 | 0.82
ATOX1 | 0.88 | 0.45 | 0.51
PITPNM3 | 0.76 | 0.68 | 0.9
ZBTB7A | 0.84 | 0.72 | 0.86
SLC6A1 | 0.9 | 0.77 | 0.86
RALA | 0.99 | 0.87 | 0.88
TGIF2LY | 0.97 | 0.7 | 0.72
ENAM | 1.23 | 1.08 | 0.88
LYRM2 | 1 | 0.78 | 0.78
FIZ1 | 1.14 | 1 | 0.88
PXYLP1 | 1.41 | 0.62 | 0.44
PDXK | 0.98 | 0.85 | 0.87
EVI2B | 1.05 | 0.86 | 0.82
ZNF334 | 1.14 | 0.99 | 0.87
MED1 | 1.02 | 0.92 | 0.9
CLCN5 | 1.3 | 1.04 | 0.8
SATL1 | 1.07 | 1.04 | 0.97
GPX4 | 0.62 | 0.58 | 0.94
CACFD1 | 1.03 | 0.89 | 0.86
MON2 | 0.9 | 0.84 | 0.93
TMEM18 | 0.98 | 0.78 | 0.8
SCNN1A | 1.17 | 0.9 | 0.77
NME9 | 1.08 | 0.95 | 0.88
BMERB1 | 1.49 | 0.88 | 0.59
OGA | 1.16 | 0.85 | 0.73
B4GALT7 | 1.11 | 0.82 | 0.74
AAMDC | 1.69 | 0.44 | 0.26
ST6GALNAC2 | 1.06 | 0.82 | 0.77
ABHD14B | 0.9 | 0.9 | 1
ADIPOR1 | 1.19 | 0.69 | 0.58
CCT4 | 1.03 | 0.78 | 0.76
HDIP1 | 1.66 | 0.96 | 0.58
KLHL28 | 0.88 | 0.96 | 1.09
MCM7 | 1.05 | 1.04 | 0.99
ARFGEF1 | 1.08 | 0.67 | 0.62
CEP19 | 1.06 | 1 | 0.94
NKX2-3 | 0.91 | 0.82 | 0.9
OR2Y1 | 1 | 0.86 | 0.86
PTPRJ | 1.54 | 0.8 | 0.52
LAD1 | 1.14 | 0.98 | 0.86
CREB3L4 | 1.47 | 0.44 | 0.3
ARSJ | 1.21 | 0.64 | 0.53
STAG1 | 0.84 | 0.69 | 0.82
HOMEZ | 0.86 | 0.55 | 0.64
ZNF785 | 1.18 | 0.97 | 0.82
RAB19 | 0.74 | 0.5 | 0.68
OR4N2 | 1.16 | 0.57 | 0.49
PAOX | 0.9 | 0.8 | 0.89
CENPT | 1 | 0.88 | 0.88
GADD45A | 1.03 | 0.78 | 0.76
POGK | 1.13 | 0.97 | 0.86
C19orf47 | 0.73 | 0.7 | 0.96
SACK1H | 1.13 | 0.62 | 0.55
TRAF4 | 0.93 | 0.53 | 0.57
TMEM86A | 1.36 | 0.68 | 0.5
TMC4 | 1.47 | 1 | 0.68
SACK1C | 0.94 | 0.88 | 0.94
MANBAL | 1.02 | 0.82 | 0.8
